From paper PMC8411934
Results are given in words; binding and its absence hold for the method and conditions named.

The chains behind the UniProt entries cited, without tags or fusion partners. Residues count along the entry.
UniProt Q56952, residues 32-311: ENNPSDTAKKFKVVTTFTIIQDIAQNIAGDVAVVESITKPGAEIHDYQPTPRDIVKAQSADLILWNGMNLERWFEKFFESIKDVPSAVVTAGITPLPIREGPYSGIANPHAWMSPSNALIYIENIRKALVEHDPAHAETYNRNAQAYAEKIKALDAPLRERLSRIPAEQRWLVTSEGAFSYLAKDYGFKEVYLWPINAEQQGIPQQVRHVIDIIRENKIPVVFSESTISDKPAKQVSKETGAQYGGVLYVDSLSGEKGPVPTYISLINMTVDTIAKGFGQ

Molecular target: YfeA-His10 (Yersinia pestis substrate-binding protein YfeA) (Yersinia pestis) (UniProt Q56952)
Assay: SEC; both purified

Substance: YfeA-His10 (Yersinia pestis substrate-binding protein YfeA) (from UniProt Q56952)
- binding: no binding (tested: 5 mg ml-1 YfeA)
